From publication PMC8533070
Results are given in words; binding and its absence hold for the method and conditions named. Some binding calls cover weakened binding; strength is not graded here. Sequences can lack the tags named with a protein.

Legend:
Conditions in all cases: remark: other sources report otherwise
[1] = biological target: T1, human NUP58 nucleoporin, full-length, fused with His6 tag (human), Q9BVL2; assay: SDS-PAGE with additional gel boiling (aggregated and soluble fractions); purified NUP58 after incubation in non-denaturing conditions, 0 h against 96 h; Western blot with anti-His antibody; both purified
T1 chain: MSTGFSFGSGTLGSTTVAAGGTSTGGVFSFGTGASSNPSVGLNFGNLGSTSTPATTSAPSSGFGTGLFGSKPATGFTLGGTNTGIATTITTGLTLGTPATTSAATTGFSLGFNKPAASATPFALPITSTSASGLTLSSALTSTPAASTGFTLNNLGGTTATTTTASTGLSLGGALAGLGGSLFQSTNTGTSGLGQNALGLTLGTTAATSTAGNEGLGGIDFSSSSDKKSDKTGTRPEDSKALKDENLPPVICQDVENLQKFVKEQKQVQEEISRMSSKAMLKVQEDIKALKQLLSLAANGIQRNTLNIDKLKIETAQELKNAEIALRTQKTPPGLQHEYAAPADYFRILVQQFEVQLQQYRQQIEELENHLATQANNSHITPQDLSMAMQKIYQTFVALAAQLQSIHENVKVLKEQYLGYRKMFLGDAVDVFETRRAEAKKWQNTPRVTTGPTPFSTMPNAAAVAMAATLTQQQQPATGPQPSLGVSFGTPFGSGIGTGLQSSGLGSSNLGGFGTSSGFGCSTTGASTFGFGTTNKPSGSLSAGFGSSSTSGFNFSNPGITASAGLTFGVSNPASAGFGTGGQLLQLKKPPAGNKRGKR

[2] = biological target: T1, human NUP58 nucleoporin, full-length, …; assay: SDS-PAGE of boiled and unboiled samples (SDS-resistant aggregates); purified NUP58 at 1 mg/mL in 5 mM potassium phosphate pH 5.8, 150 mM NaCl, 37 °C, slow rotation; 0 h against 96 h; Coomassie staining; both purified
[3] = biological target: T1, human NUP58 nucleoporin, full-length, …; assay: SDD-AGE (semi-denaturing detergent agarose gel electrophoresis); purified NUP58 after incubation in non-denaturing conditions, 0 h against 96 h; 1.5-2% agarose; with or without 2% BME, boiled or unboiled; Western blot with anti-His antibody; both purified

Measured: binding

B1: human NUP58 nucleoporin, full-length, fused with His6 tag, Q9BVL2-1 1-599 (protein)
chain: T1 chain
binds: all assays above
